Experimental data taken from patent US20060258647A1, “Treatment of maladaptive substance use with cholecystokinin (CCK) antagonists” (The Regents of the University of California, priority 2005, published 2006).
For at least one compound, name, drawing or mass did not settle the structure.

Tested on: Sprague-Dawley rats
Assay: Expression of morphine CPP after microinjection into anterior or posterior nucleus accumbens (NAcc)
Type: in vivo, rat
Procedure: 68 male Sprague-Dawley rats (Charles River, Wilmington, Mass.) weighing 275-300 grams at the onset of the study were individually housed in a temperature controlled environment (70° F.) and kept on a 12 hour light/dark cycle. Rat chow and water were available ad libitum. Animals were tested at the same time during their light cycle each day. All experimental protocols were approved by the Institutional Animal Care and Use Committee and were conducted in accordance with the Guide for the Care and Use of Laboratory Animals (N1H). 22 rats were used for systemic injections and the remaining rats were cannulated for NAcc microinjections.
Animals were anesthetized with a ketamine-xylazine mixture and maintained on isoflurane (0.5 liter/min) as needed for the duration of surgery. Animals were placed in a stereotaxic frame and were implanted with bilateral 26-gauge stainless steel chronic guide cannulae (Plastics One, Roanoke, V A) into either the Anterior (AP, 2.2; ML, ±1.1; DV, −5.5) or Posterior (AP, 1.2; ML, ±1.1; DV, −5.5) NAcc. Cannulae were secured to the skull with dental cement. At the end of the surgical procedure, animals were treated with penicillin and topical antibiotics. A stainless steel dummy cannula (Plastics One) was inserted into each guide cannula and remained in place when the guide cannulae were not in use. Animals were allowed a 1-week recovery period prior to behavioral testing.
Animals were trained in 3 chamber place conditioning boxes (Med Associates) in which 2 chambers (28×21×21 cm) that differed in color (one black, one white), light level, and texture were separated by a neutral gray chamber (12×21×21). During the initial baseline period, animals were placed in the central chamber and were allowed to freely explore all 3 chambers for a period of 30 minutes. Beam breaks, entries, and time spent in each chamber were automatically recorded using infrared beams. […]
All injection sites were based on the atlas of Paxinos and Watson (1998). […] The number of microinjections each animal received was determined by the persistence of place preference. […]

CN1CCc2cc(Cl)c(O)cc2[C@@H](c2ccccc2)C1 [SCH-23390]
expression of morphine CPP, microinjected independently into anterior NAcc (anterior NAcc, L-365, 260 1 ng (p=0.002), CCK-4 10 ng, CCK-8 100 ng (legend 10 ng), lorglumide 15 ng, raclopride 4 μg, SCH-23390 2 μg): but not the anterior
locomotion (average number of room entries and beam breaks) (following posterior NAcc microinjection, 2 μg, room entries p=0.007, beam breaks p=0.003): significant decrease in locomotion
expression of morphine CPP, microinjected independently into posterior NAcc (posterior NAcc, L-365, 260 1 ng (p=0.021), CCK-4 10 ng, CCK-8 100 ng (legend 10 ng), lorglumide 15 ng, raclopride 4 μg, SCH-23390 2 μg (p=0.049)): potentiates
